SMILES strings stand for the structures.

The values below come from patent US4703048A, “Novel 1-benzhydryl-4-cinnamylpiperazine derivatives, and pharmaceutical compositions comprising said compounds as active ingredient for treating a cerebrovascular disease” (Kanebo Ltd., priority 1985, dated 1987).

This assay has as its system vertebral blood flow. As to the kind of experiment: Activity of increasing cerebral blood flow (vertebral blood flow), intravenous administration in anesthetized dogs. As to conditions: Canis lupus familiaris; 0.03 to 0.3 mg/kg intravenous, anesthetized mongrel dogs; calculated from the regression line; read-out: VBF-ED50 (dose which increased the cerebral blood flow by 50%). The format is in vivo.

In general, ED50 refers to the dose at which the effect has come halfway, by size or by number of responders. As for `C(=Cc1ccccc1)CN1CCN(C(c2ccccc2)c2ccccc2)CC1` [Cinnarizine, reference compound], the ED50 was more than 0.3 mg/kg.
